Taken from: PubChem BioAssay AID602196 (INSERM, 2012)
Shown is one part, drawn at random, of about 23,000 reagents tested. Of all reagents, 455 (2%) got an active call. 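Active includes both protection and sensitisation; some change values fall well beyond the stated -50 to +50 range.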 Not given: the amount of reagent.

Screen: 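Genes whose knock-down alters cisplatin killing of lung cancer cells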
Cell system: human A549 lung cancer cells
Reagent: siRNA pair against human genes
Duration: 48 h transfection before cisplatin; time from cisplatin to read-out not stated
Conditions: cisplatin at a dose killing half of control-siRNA cells; exact dose and duration not given
Measured: 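Cisplatin cell death as a shift from the 50% death seen with control siRNA; siRNAs toxic or growth-blocking alone scored 0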
Direction: two-siRNA summed score (-2 to +2): higher = both siRNAs protect from cisplatin killing; -2 means both sensitise; mean protection from cisplatin (shift in death) and protection from cisplatin (shift in death), siRNA C and protection from cisplatin (shift in death), siRNA D: higher = protection from cisplatin killing
Call rule: 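Each siRNA scores 0 if harmful alone by LDH or WST-1, otherwise +1 if it reduces and -1 if it increases cisplatin killing; a gene is active when both siRNAs agree (sum +2 or -2)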
Calls: active = both siRNAs shift cisplatin killing the same way; inactive = no consistent shift, or siRNA harmful alone

| gene knocked down | PubChem SID | two-siRNA summed score (-2 to +2) | mean protection from cisplatin (shift in death) (%) | protection from cisplatin (shift in death), siRNA C (%) | protection from cisplatin (shift in death), siRNA D (%) | outcome |
| --- | --- | --- | --- | --- | --- | --- |
| DHX38 (DEAH-box helicase 38) | SID131508637 | 0 | 1.3 | -6.9 | 9.5 | inactive |
| CSNK1G1 (casein kinase 1 gamma 1) | SID131520016 | 1 | 8.4 | 16 | 0.7 | inactive |
| CDH16 (cadherin 16) | SID131522223 | 1 | 16.9 | 15.8 | 18.1 | inactive |
| FRY (FRY microtubule binding protein) | SID131516158 | 0 | 10.3 | 1.3 | 19.4 | inactive |
| TDRD1 (tudor domain containing 1) | SID131505028 | 0 | -4 | -7.6 | -0.3 | inactive |
| CTHRC1 (collagen triple helix repeat containing 1) | SID131511173 | 0 | 4.1 | 10.1 | -2 | inactive |
| ARHGEF28 (Rho guanine nucleotide exchange factor 28) | SID131514090 | 0 | 7.4 | 0.2 | 14.5 | inactive |
| TPPP3 (tubulin polymerization promoting protein family member 3) | SID131511467 | 0 | 4.4 | -6.2 | 15 | inactive |
| GRSF1 (G-rich RNA sequence binding factor 1) | SID131519027 | 1 | 1.2 | -6.9 | 9.3 | inactive |
| NHS (NHS actin remodeling regulator) | SID131508235 | 0 | 0.8 | 11.8 | -10.2 | inactive |
| NQO2 (N-ribosyldihydronicotinamide:quinone dehydrogenase 2) | SID131503096 | 0 | -13.8 | -4.7 | -22.9 | inactive |
| HMGB1 (high mobility group box 1) | SID131510677 | 0 | 3.5 | 9.9 | -2.9 | inactive |
| ARMCX4 (armadillo repeat containing X-linked 4) | SID131503354 | 0 | -10.7 | -9.4 | -11.9 | inactive |
| ARMCX4 (armadillo repeat containing X-linked 4) | SID131521576 | 1 | 14 | 5.9 | 22.2 | inactive |
| COLGALT2 (collagen beta(1-O)galactosyltransferase 2) | SID131511905 | 0 | 4.9 | 4.7 | 5 | inactive |
| LINC01116 (long independently transcribed non-coding RNA 1116) | SID131522309 | 1 | 17.6 | 19.9 | 15.4 | inactive |
| AGR2 | SID131515211 | 0 | 8.8 | 4.2 | 13.4 | inactive |
| CALML3 (calmodulin like 3) | SID131510560 | 0 | 3.4 | 5.1 | 1.7 | inactive |
| PDHA2 (pyruvate dehydrogenase E1 subunit alpha 2) | SID131501436 | -1 | -9.7 | 7.5 | -27 | inactive |
| DPYSL4 (dihydropyrimidinase like 4) | SID131509613 | 0 | 2.3 | 1.7 | 2.9 | inactive |
| LOC387845 | SID131520485 | 1 | 10.1 | 9.2 | 10.9 | inactive |
| ABI3BP (ABI family member 3 binding protein) | SID131500888 | -1 | -14.7 | -3.1 | -26.3 | inactive |
| DEAF1 (DEAF1 transcription factor) | SID131506320 | 0 | -1.7 | 3.9 | -7.3 | inactive |

An excerpt from above, showing only “protection from cisplatin (shift in death), siRNA D (%)”.
DPYSL4 (dihydropyrimidinase like 4) [SID131509613]: 2.9
LOC387845 [SID131520485]: 10.9
